Test results published in US11345895B2, “Induction of arterial-type of hemogenic endothelium (AHE) and enhancement of T cell production from PSCs through overexpression of ETS factors or modulating MAPK/ERK signalling pathways” (Wisconsin Alumni Research Foundation, priority 2016, dated 2022).
For at least one compound, name, drawing or mass did not settle the structure.

Columns and labels:
Format in all cases: cell-based, human
[1] = test system: iETS1-hESCs (H1, DOX-inducible ETS1 transgene); assay: Arterial marker expression on CD144+ endothelial cells of DOX-treated iETS1-hESCs; conditions: DOX from day 2, analysed day 4 of differentiation; dose-dependent
[2] = test system: iETS1-hESCs (H1, DOX-inducible ETS1 transgene); assay: Primitive and definitive hematopoiesis from DOX-treated iETS1-hESCs (HB-CFC, HE, T cell, RBC cultures)
Protocol: To define which type of hematopoiesis is affected by ETS1 overexpression, we evaluated the effect of DOX treatment on i) hemangioblast (HB) CFCs that reflect the primitive wave of hematopoiesis^37, 38 and ii) on T lymphocytes and β-hemoglobin-producing red blood cells that reflect definitive hematopoiesis (FIG. 3A)^37, 39. […] This effect was more profound when cultures were treated with DOX from day 0 through day 3 to ensure maximum ETS1 overexpression on day 3 (FIG. 3B and FIGS. 9B-9C). […] To determine the effect of ETS1 upregulation on T cell potential, we collected CD43^+ cells from DOX+ and DOX− cultures and subcultured on OP9−DLL4 stromal cells. Although cells collected from both conditions generated a similar percentage of CD5^+CD7^+ and CD4^+CD8^+ T lymphoid cells (FIG. 3D), CD43^+ cells from DOX+ cultures produced a dramatically (˜8 fold) greater number of T lymphoid cells per 10^4 of CD43 cells (FIG. 3E).
HB-CFCs were detected as described previously^54. HB-CFCs were detected using the semisolid colony-forming serum-free medium (CF-SFM) containing 40% ES-Cult M3120 methylcellulose (2.5% solution in IMDM, Stem Cell Technologies), 25% StemSpan™ serum-free expansion medium (SFEM, Stem Cell Technologies), 25% human endothelial serum-free medium (ESFM, Invitrogen), 10% BIT 9500 supplement (Stem Cell Technologies), GlutaMAX™ (1/100 dilution, Invitrogen), Ex-Cyte™ (1/1000 dilution, Millipore), 100 μM MTG, 50 μg/ml ascorbic acid and 20 ng/ml FGF (Peprotech). Hematopoietic CFCs were detected using serum containing H4435 MethoCult with FGF, SCF, IL-3, IL-6 and EPO (Stem Cell Technologies). […]
Total RNA was isolated using the RNeasy® Plus Micro Kit (Qiagen). […] Real time quantitative PCR was performed in triplicates using SYBR Advantage qPCR Premix (Clontech) on Mastercycler® ep realplex (Eppendorf). Gene expression was evaluated as DeltaCt relative to the RPL13A gene.

[3] = test system: CD235a/CD41a-CD45+ hematopoietic progenitors from hESCs; assay: Hematopoietic progenitor production and hematopoietic CFC assay after modulation of MAPK/ERK signaling; conditions: ERK pathway activated (LY294002 2 μM) or inhibited (U0126 1 μM), days 3-6
[4] = test system: DLL4+ arterial type HE from hPSCs; assay: Arterial HE specification in hESC differentiation cultures with modulation of MAPK/ERK signaling (flow cytometry); conditions: differentiation cultures treated on days 3 through day 6; LY294002 2 μM, U0126 1 μM
[5] = test system: T lymphoid potential of hESC cultures; assay: T cell differentiation on OP9-DLL4 after LY294002 or U0126 treatment; conditions: cultures treated with LY294002 2 μM or U0126 1 μM

Compound | expression of DLL4 and CXCR4 on endothelial cells [1] | formation of CD144+ endothelial cells [1] | adult β-hemoglobin and BCL11a gene expression ([2]; CD43 cells collected following DOX treatment, cultured in erythroid conditions, RT-qPCR) | APLNR+PDGFRα+ primitive mesodermal cells and HB-CFCs compared to control ([2]; DOX on day 2, observed on day 3) | formation of CD144+CD43-CD73- definitive HE ([2]; DOX starting from day 2, day 5 of differentiation, dose-dependent) | production of multipotent CD235a/CD41a-CD45+ hematopoietic progenitors and CFC potential [3] | production of DLL4+ arterial type HE, including the DLL4+CXCR4+ fraction [4] | T lymphoid potential [5]
C[C@H]1c2cccc(O)c2C(=O)C2=C(O)[C@]3(O)C(=O)C(C(N)=O)=C(O)[C@@H](N(C)C)[C@@H]3[C@@H](O)[C@@H]21 [DOX, doxycycline] | induced expression | increased formation | upregulated | significant decrease | increased formation |  |  | 
O=c1cc(N2CCOCC2)oc2c(-c3ccccc3)cccc12 [LY294002] |  |  |  |  |  | dramatically increased | enhanced production | significantly increased
